Laboratory results: patent publication US20060024296A1
These are yes or no findings as the source states them, for the method shown. Some results given as binding are weak or reduced against the parent protein; the word gives no strength. Where a sequence is shown, tags or fusion partners need not be part of it.

B1: Luc34 (antibody, IgG1, V domains shown)
VH: QVQLQQSGAELARPGASVKLSCKASGYTFTSYWMQWVKQRPGQGLEWIGAIYPGDGDTRYTQKFKGKATLTADKSSSTAYMQLSSLASEDSAVYYCARGKVYYGSNPFAYWGQGTLVTVSA
VL: DIQMTQSSSYLSVSLGGRVTITCKASDHINNWLAWYQQKPGNAPRLLISGATSLETGVPSRFSGSGSGKDYTLSITSLQTEDVATYYCQQYWSTPWTFGGGTKLEIK
B2: Luc69 (antibody, V domains shown)
VH: QVQLQQSGPELVKPGASVKISCKASGYAFSNSWMNWVKQRPGQGLEWIGRIYPGDGDTKSNGKFKGKATLTADKSSRAAYMQLSSLTSVDSAVYFCARSTMIMTGAMDYWGQGTSVTVSS
VL: DIVMTQSHKFMSTSVGDRVIITCKASQDVSTAVAWYQQKPGQSPKLLIYSASFRYTGVPDRFTGSGSGTDFTFTVSSVQAEDLAVYYCQQHYSTPPYTFGGGTKLEIK
B3: Luc90 (antibody, IgG2b, V domains shown)
VH: QVQLQQPGAELVRPGASVKLSCKASGYSFTTYWMNWVKQRPGQGLEWIGMIHPSDSETRLNQKFKDKATLTVDKSSSTAYMQLSSPTSEDSAVYYCARSTMIATRAMDYWGQGTSVTVSS
VL: DIVMTQSQKSMSTSVGDRVSITCKASQDVITGVAWYQQKPGQSPKLLIYSASYRYTGVPDRFTGSGSGTDFTFTISNVQAEDLAVYYCQQHYSTPLTFGAGTKLELK

target: hu50/mu50 chimeric CS1-Fc (human/mouse chimera; human); assay: sandwich ELISA, Fc-captured construct

binding, binds:
B1
B2
B3
